{"sequences": {"note": "The chains behind the UniProt entries cited, without tags or fusion partners. Where a name states a change or a piece, a line headed by the entry shows the natural chain unless it says otherwise.", "UniProt P14618": "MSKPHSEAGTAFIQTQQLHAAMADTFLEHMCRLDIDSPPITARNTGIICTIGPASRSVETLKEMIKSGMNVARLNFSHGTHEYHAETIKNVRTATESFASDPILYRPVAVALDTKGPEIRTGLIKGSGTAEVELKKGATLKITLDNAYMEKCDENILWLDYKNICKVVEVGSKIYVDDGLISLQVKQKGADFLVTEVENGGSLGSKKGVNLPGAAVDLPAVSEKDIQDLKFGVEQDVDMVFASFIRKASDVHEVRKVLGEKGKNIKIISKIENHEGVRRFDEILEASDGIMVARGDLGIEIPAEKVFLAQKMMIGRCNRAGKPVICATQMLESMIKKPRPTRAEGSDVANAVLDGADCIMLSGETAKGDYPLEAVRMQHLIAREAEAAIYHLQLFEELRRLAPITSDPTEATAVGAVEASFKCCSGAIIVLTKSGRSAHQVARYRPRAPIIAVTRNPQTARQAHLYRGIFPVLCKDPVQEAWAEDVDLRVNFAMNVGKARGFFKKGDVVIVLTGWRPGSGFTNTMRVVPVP"}, "source": "patent US20200239597A1", "about": "“AN ANTI-APOPTOTIC FUNCTION OF PKM2 AND INTRACELLULARLY EXPRESSED SCFV ANTIBODIES” (La Jolla Institute for Allergy and Immunology, priority 2017, published 2020)", "binders": {"B1": {"name": "intrabody clone IB12 (scFv)", "scFv": "MAQVQLVQSGGGLVKPGGSLRLSCTASGFTFSTYWMHWFRQAPGKGLLWVSRINPDGSATIYADSVKGRFTISRDNAKNSLYLQMNSLRDEDTAVYYCARGHPLSGYPGYFDYWGQGTLVTVSSGGGGSGGGGSGVADPRLCSLSRLPSLHLLEHQQSHLHFTSGINVGAYRIYWYQQKPGSPPQFLLRYKSDSDKQQGSGVPSRFSGSRDASANAGILLISGLRSEDEADYYCAIWHSSAWVFGGGTKLTVLWGSGLASVDYKDDDDK"}}, "molecular_target": "pyruvate kinase M2 (PKM2), endogenous protein of 293T cells (human) (UniProt P14618)", "assay": "anti-FLAG pull-down from 293T lysate, SDS-PAGE with silver stain", "note": "No constants are given. Whether binding was seen depends on the method and setting. In cells and extracts the contact can be indirect. Some binding calls cover weakened binding; strength is not graded here."}
{"binder": "B1", "values": [{"measurement": "binding", "value": "binds"}]}
